{"source": "patent US10660835B2", "about": "“Method for hair frizz reduction” (The Procter & Gamble Company, priority 2015, dated 2020)", "experiment": "Amount of active penetrated inside hair after soaking", "conditions": "pH 4.2, 40 deg C", "data": [{"smiles": "O=C(O)c1cc(Cl)ccc1O", "note": "[5-Chlorosalicylic acid]", "values": [{"measurement": "mg/g of Cl Salicylic acid", "setting": "10 min soaking", "value": 19, "unit": "mg/g"}, {"measurement": "mg/g of Cl Salicylic acid", "setting": "20 min soaking", "value": 25, "unit": "mg/g"}, {"measurement": "mg/g of Cl Salicylic acid", "setting": "30 min soaking", "value": 30, "unit": "mg/g"}, {"measurement": "mg/g of Cl Salicylic acid", "setting": "1 hr soaking", "value": 32, "unit": "mg/g"}, {"measurement": "mg/g of Cl Salicylic acid", "setting": "2 hr soaking", "value": 32.8, "unit": "mg/g"}]}]}
